These are yes or no findings as the source states them, for the method shown. Some results given as binding are weak or reduced against the parent protein; the word gives no strength.

Protein sequences, listed by entry. Tags and fused reporters are not part of them.
UniProt Q336P5: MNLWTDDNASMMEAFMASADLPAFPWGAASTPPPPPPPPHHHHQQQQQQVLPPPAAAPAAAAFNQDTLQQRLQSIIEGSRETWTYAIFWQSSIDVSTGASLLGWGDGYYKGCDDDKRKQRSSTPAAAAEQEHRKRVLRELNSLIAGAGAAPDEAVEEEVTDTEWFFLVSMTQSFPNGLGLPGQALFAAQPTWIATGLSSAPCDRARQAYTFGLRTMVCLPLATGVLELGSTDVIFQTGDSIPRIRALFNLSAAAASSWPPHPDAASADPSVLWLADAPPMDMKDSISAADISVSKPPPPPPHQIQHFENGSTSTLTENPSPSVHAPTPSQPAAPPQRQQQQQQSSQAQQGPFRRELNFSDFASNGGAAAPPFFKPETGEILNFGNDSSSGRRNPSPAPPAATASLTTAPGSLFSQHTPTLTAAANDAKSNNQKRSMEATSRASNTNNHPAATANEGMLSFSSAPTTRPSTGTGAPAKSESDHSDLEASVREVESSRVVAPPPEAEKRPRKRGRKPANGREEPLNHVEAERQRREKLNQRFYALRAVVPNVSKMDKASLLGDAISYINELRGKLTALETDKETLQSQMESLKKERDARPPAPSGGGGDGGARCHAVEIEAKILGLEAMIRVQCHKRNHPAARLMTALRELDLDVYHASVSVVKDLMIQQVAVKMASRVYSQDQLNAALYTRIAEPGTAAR

The target in this test is T1, OsSPX3 (pBD-OsSPX3) (rice (Oryza sativa)) (UniProt Q7XEY9).
T1 sequence: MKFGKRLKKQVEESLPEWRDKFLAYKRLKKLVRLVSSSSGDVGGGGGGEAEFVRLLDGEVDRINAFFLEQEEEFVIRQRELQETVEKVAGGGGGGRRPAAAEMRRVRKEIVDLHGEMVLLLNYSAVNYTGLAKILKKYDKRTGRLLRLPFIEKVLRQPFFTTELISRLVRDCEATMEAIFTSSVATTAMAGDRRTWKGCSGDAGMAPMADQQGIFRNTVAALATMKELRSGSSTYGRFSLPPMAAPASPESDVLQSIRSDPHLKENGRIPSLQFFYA
Kind of test: two-hybrid; Matchmaker Gold system, yeast strain Y2H Gold; bait in pGBKT7 (BD), prey in pGADT7 (AD); spotted on TDO, QDO and QDO with X-alpha-gal and Aureobasidin A; 30 °C, 3-4 days.

As for “OsMYC2 (pAD-OsMYC2) (from UniProt Q336P5 1-699)”, the binding result was “binds”.

Source of the values: PMC8213676, “OsJAZ11 regulates phosphate starvation responses in rice”.
